Here are results for one molecule from paper doi:10.1101/2022.03.09.482262.

Results are given in words; binding and its absence hold for the method and conditions named. Some results given as binding are weak or reduced against the parent protein; the word gives no strength.

The assay deals with POPEYE (PYE) (Arabidopsis thaliana) (UniProt Q9SN74). Description: two-hybrid.

B1: POPEYE (PYE) (protein, UniProt Q9SN74 1-240)
chain: MVSKTPSTSSDEANATADERCRKGKVPKRINKAVRERLKREHLNELFIELADTLELNQQNSGKASILCEATRFLKDVFGQIESLRKEHASLLSESSYVTTEKNELKEETSVLETEISKLQNEIEARANQSKPDLNTSPAPEYHHHHYQQQHPERVSQFPGLPIFQGPGFQQSATTLHPPATVLVLPIQPDPQTQDISEMTQAQQPLMFNSSNVSKPCPRYASAADSWSSRLLGERLKASE
In the case of B1, the binding result was “binds”.
